The other results are listed elsewhere or left out.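 Rule for the calls: active = dose-dependent thermal stabilisation significant by F-test of dose-response against flat model at 10% FDR; inactive = not significant.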
Compound: Nc1nc2c(ncn2[C@@H]2O[C@H](COP(=O)(O)OP(=O)(O)OP(=O)(O)O)[C@@H](O)[C@H]2O)c(=O)[nH]1
Assay: dose-dependent thermal stabilisation call (2D-TPP, DLPTP, 10% FDR) (binary (1 = stabilised)); higher = stabilised by the compound
Details: system: Jurkat gel-filtered lysate; concentration range 1-500 µM

Sequences of proteins named here, by UniProt entry; tags and fusion partners are left off. A change or cut given only in a name is not applied to a line headed by its entry.
UniProt Q9Y228: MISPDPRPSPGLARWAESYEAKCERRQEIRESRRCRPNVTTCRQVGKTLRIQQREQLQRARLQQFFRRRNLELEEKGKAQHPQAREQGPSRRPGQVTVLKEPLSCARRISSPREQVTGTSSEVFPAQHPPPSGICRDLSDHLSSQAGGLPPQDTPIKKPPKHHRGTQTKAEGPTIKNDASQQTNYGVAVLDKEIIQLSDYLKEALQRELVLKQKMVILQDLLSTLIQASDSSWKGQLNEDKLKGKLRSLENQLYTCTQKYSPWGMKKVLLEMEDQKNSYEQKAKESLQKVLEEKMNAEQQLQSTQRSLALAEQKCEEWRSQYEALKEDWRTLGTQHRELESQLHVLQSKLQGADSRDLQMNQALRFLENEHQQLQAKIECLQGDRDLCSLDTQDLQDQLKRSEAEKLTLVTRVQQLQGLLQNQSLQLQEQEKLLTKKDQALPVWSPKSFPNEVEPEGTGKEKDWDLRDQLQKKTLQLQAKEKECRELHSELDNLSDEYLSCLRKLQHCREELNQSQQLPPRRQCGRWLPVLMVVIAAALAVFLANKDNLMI
UniProt Q9Y5R8, whole entry: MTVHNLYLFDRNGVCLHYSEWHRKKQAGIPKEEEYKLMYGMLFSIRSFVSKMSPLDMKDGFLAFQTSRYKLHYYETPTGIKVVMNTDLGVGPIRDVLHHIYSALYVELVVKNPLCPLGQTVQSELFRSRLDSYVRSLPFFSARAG
UniProt P10155: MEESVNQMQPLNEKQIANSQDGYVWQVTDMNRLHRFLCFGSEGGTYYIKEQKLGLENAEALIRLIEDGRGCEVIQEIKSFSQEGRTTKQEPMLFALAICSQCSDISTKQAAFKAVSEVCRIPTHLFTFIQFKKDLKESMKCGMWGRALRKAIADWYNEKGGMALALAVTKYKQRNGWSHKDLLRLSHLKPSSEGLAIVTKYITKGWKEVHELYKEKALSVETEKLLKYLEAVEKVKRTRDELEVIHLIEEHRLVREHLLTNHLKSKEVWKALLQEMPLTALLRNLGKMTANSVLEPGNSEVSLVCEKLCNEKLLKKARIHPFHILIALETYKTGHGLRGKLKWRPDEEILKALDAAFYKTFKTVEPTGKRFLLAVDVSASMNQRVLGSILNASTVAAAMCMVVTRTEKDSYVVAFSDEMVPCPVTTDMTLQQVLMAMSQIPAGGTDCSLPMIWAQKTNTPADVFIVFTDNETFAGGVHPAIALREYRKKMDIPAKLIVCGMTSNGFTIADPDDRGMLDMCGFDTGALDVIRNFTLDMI
UniProt O94900: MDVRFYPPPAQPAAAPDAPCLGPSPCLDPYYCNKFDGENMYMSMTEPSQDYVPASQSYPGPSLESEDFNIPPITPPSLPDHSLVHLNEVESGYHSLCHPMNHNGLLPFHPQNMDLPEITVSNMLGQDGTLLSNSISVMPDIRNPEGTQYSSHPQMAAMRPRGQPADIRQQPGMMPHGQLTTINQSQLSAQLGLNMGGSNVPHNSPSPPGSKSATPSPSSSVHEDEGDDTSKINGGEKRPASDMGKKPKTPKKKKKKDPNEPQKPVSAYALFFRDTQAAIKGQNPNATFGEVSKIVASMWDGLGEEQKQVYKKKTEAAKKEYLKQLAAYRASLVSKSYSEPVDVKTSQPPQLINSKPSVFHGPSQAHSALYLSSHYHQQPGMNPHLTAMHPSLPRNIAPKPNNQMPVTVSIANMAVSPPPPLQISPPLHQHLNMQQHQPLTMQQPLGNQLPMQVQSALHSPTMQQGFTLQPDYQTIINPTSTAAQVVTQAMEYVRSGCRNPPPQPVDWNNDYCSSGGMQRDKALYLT
UniProt O95455: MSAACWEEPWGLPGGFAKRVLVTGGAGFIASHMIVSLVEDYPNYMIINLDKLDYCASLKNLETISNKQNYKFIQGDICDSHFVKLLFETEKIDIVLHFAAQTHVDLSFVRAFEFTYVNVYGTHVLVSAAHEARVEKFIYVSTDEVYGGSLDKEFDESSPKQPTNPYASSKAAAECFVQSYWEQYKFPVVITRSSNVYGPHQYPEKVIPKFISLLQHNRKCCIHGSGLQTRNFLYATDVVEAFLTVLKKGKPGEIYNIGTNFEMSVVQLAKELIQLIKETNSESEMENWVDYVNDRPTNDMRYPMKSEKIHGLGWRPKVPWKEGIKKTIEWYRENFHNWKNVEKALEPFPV
UniProt Q5JTD0: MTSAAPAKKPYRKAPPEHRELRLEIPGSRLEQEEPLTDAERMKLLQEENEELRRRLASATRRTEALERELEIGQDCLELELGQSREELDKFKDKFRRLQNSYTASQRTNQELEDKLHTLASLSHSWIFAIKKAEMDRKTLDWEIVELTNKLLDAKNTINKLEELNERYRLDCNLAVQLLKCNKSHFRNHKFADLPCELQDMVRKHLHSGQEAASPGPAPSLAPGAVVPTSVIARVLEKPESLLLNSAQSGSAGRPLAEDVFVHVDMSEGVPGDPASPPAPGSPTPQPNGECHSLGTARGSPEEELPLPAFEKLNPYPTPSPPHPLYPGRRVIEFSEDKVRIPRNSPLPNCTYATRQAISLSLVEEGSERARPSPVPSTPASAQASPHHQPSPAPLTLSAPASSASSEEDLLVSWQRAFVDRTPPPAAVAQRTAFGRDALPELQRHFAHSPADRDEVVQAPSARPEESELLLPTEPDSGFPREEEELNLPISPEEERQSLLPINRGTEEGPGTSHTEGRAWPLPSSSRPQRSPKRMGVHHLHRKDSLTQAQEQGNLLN
UniProt P23258, whole entry: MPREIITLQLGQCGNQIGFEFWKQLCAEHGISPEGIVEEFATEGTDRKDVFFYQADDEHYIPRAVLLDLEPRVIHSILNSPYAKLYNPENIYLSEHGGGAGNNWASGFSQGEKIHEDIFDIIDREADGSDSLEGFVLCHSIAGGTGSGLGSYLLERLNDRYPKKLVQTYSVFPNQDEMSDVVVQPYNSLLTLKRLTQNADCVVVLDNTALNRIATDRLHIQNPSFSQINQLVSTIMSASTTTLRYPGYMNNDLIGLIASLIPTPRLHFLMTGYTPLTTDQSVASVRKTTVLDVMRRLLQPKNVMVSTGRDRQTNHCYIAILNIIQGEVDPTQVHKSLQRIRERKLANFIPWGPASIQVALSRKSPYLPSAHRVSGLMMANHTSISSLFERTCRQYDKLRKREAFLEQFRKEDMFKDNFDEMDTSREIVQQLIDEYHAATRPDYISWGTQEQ
UniProt P17542, whole entry: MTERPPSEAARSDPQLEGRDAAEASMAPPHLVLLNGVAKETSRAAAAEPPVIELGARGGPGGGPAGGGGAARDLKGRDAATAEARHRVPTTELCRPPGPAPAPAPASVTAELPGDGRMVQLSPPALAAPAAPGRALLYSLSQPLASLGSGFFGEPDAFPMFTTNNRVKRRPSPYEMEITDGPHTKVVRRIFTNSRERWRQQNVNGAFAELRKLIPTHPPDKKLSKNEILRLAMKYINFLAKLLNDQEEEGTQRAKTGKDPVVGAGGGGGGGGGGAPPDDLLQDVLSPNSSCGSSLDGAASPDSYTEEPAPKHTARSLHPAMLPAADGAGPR
UniProt O14787: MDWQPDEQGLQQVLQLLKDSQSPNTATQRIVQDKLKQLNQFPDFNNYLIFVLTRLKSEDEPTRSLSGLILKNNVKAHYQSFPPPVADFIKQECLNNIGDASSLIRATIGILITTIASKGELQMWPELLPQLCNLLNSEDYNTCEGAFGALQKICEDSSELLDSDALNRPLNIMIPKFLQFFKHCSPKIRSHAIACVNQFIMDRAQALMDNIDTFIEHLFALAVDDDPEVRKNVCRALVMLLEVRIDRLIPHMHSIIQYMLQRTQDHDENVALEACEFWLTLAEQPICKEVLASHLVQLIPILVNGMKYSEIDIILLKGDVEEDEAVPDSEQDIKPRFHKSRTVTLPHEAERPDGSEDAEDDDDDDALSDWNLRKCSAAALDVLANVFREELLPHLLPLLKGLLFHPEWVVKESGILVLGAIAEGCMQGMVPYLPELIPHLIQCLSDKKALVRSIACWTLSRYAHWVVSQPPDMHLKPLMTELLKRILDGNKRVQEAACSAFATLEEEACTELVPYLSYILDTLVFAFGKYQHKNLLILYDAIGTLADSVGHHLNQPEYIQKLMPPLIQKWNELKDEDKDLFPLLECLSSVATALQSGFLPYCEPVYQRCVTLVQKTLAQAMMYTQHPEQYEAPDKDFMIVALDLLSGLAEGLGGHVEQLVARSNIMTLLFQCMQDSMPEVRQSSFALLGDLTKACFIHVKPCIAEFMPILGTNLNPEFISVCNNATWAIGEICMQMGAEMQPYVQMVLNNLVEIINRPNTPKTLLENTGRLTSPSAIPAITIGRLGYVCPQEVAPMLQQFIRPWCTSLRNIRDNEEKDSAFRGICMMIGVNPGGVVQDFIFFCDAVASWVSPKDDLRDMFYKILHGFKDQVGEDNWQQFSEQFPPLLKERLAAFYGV
UniProt Q92574: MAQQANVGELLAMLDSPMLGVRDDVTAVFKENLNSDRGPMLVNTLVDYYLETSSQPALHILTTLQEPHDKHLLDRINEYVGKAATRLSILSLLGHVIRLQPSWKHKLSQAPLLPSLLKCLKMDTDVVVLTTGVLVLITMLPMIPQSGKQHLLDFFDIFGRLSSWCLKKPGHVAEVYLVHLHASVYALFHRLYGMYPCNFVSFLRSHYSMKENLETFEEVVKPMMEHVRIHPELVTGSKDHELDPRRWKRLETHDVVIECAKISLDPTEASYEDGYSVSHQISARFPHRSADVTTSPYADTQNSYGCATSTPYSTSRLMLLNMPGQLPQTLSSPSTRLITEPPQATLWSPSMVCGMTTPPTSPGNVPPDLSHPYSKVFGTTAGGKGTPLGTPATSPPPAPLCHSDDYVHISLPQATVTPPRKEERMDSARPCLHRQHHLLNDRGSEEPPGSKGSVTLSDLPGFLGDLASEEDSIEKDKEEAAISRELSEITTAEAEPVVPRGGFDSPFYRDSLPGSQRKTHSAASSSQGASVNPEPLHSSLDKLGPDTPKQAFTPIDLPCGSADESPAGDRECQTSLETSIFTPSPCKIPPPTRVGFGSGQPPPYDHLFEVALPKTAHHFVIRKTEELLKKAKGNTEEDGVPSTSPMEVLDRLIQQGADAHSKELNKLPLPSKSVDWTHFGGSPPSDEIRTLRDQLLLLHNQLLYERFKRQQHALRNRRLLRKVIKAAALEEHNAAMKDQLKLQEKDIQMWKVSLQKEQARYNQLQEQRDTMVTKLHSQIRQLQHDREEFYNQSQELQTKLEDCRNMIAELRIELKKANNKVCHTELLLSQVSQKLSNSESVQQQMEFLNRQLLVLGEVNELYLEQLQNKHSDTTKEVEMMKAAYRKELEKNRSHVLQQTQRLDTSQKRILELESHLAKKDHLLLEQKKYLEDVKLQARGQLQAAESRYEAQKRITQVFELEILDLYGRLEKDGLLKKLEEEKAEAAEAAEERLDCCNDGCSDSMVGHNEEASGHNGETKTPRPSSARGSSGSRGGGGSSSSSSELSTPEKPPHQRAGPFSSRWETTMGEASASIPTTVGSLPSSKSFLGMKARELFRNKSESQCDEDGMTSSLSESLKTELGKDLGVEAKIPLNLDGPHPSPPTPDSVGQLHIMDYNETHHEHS
UniProt Q9GZZ9, whole entry: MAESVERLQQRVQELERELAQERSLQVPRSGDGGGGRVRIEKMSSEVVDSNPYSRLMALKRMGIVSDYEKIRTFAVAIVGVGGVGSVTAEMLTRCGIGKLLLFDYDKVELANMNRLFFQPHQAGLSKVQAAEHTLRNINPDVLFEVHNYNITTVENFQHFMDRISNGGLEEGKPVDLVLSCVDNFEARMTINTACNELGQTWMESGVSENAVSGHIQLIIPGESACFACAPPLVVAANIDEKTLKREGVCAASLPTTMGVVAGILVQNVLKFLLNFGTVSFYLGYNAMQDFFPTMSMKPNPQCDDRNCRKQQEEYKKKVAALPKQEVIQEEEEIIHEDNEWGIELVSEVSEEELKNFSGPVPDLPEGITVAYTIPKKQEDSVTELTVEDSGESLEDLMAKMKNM
UniProt Q13049: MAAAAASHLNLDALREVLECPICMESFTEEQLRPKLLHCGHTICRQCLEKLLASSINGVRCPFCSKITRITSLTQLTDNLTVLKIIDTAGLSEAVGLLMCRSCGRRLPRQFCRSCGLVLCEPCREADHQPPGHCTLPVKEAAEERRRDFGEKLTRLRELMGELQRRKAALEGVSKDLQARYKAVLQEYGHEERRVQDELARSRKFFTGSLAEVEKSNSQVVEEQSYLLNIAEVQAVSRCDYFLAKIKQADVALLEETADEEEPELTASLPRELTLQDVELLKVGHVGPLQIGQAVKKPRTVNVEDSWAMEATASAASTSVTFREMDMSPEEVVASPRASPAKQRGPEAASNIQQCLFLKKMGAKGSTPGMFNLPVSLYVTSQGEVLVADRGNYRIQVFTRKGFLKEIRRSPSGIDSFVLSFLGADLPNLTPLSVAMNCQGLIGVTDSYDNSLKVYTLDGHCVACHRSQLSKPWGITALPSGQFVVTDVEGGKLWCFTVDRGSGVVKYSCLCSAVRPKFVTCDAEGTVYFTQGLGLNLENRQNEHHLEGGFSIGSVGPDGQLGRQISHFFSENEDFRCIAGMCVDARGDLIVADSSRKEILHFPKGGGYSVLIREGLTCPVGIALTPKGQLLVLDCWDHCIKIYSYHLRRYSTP

Target | dose-dependent thermal stabilisation call
TRAF3IP3 (UniProt Q9Y228) | inactive: 0
TTF2 (UniProt Q9UNY4) | inactive: 0
TRAPPC3 (UniProt O43617) | inactive: 0
TRAPPC1 (UniProt Q9Y5R8) | inactive: 0
TOM1 (UniProt O60784) | inactive: 0
TBC1D22A (UniProt Q8WUA7) | inactive: 0
TROVE2 (UniProt P10155) | inactive: 0
TLK2 (UniProt Q86UE8) | inactive: 0
TOX (UniProt O94900) | inactive: 0
TDRD7 (UniProt Q8NHU6) | inactive: 0
TOMM34 (UniProt Q15785) | active: 1
TGDS (UniProt O95455) | inactive: 0
TKT (UniProt P29401) | inactive: 0
TYW3 (UniProt Q6IPR3) | inactive: 0
TTC5 (UniProt Q8N0Z6) | active: 1
TJAP1 (UniProt Q5JTD0) | inactive: 0
TECPR1 (UniProt Q7Z6L1) | inactive: 0
TERF2 (UniProt Q15554) | active: 1

Target | dose-dependent thermal stabilisation call
TMEM57 (UniProt Q8N5G2) | inactive: 0
TUBG1 (UniProt P23258) | active: 1
TAL1 (UniProt P17542) | inactive: 0
TNPO2 (UniProt O14787) | inactive: 0
TSC1 (UniProt Q92574) | inactive: 0
TTLL12 (UniProt Q14166) | active: 1
TRAPPC9 (UniProt Q96Q05) | active: 1
TMSB10 (UniProt P63313) | inactive: 0
TGS1 (UniProt Q96RS0) | active: 1
TAGLN2 (UniProt P37802) | inactive: 0
UBA1 (UniProt P22314) | inactive: 0
TNFAIP3 (UniProt P21580) | inactive: 0
UBA5 (UniProt Q9GZZ9) | inactive: 0
TRIM32 (UniProt Q13049) | inactive: 0
TMPO (UniProt P42166) | inactive: 0
TRIP12 (UniProt Q14669) | inactive: 0
TOM1L2 (UniProt Q6ZVM7) | inactive: 0
TRAF7 (UniProt Q6Q0C0) | inactive: 0

An excerpt of the results above:
Target | dose-dependent thermal stabilisation call
TOM1L2 (UniProt Q6ZVM7) | inactive: 0
TRAF7 (UniProt Q6Q0C0) | inactive: 0
